# Laboratory results as given in PubChem BioAssay.
# Inconclusive results, whose numbers are uncertain, are shown with a selection of clear calls. Potencies of inconclusive entries are doubtful fits and often do not repeat. Calls of active or inactive are those of the source. No cut-off is given here; in the data, nearly all actives have AC50 up to about 30 µM.
# Experiment: growth inhibition of DIPG glioma cells, dose response, cell-based, SU-DIPG-IV, MIPE4.0, CellTiter-Glo, qHTS (AID 1347063);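 note: compound exposure lasted 48 hours before the viability readout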
# Conditions: SU-DIPG-IV viability, CellTiter-Glo ATP luminescence
SMILES,AC50,outcome
CO[C@@H]1C(N(C)C(=O)c2ccccc2)C[C@H]2O[C@]1(C)n1c3ccccc3c3c4c(c5c6ccccc6n2c5c31)C(=O)NC4=O (stereo not given in full),inconclusive: 1.32 µM [cytotoxic],
CN(C)c1ccc(-c2nc3ncc(Cl)c(N4CCN(CC(=O)Nc5nccs5)CC4)c3[nH]2)cc1,inconclusive: 2.96 µM [cytotoxic],
O=C(CCCCCCC(=O)Nc1ccc([C@H]2O[C@@H](CSc3nc(-c4ccccc4)c(-c4ccccc4)o3)C[C@@H](c3ccc(CO)cc3)O2)cc1)NO,active: 13.2 µM,
CC(C)C[C@H](NC(=O)CNC(=O)c1cc(Cl)ccc1Cl)B1OC(=O)CC(CC(=O)O)(C(=O)O)O1 (stereo not given in full),active: 0.0662 µM,
CO[C@H]1C[C@@H]2CC[C@@H](C)[C@@](O)(O2)C(=O)C(=O)N2CCCC[C@H]2C(=O)O[C@H]([C@H](C)C[C@@H]2CC[C@@H](OC(=O)C(C)(CO)CO)[C@H](OC)C2)CC(=O)[C@H](C)/C=C(\C)[C@@H](O)[C@@H](OC)C(=O)[C@H](C)C[C@H](C)/C=C/C=C/C=C/1C,inconclusive: 33.2 µM [cytotoxic],
CC[C@H](CC#N)OC(=O)N[C@@H](C)c1cccc(NC(=O)Nc2ccc(-c3cnco3)c(OC)c2)c1,active: 1.32 µM,
CCNC(=O)Nc1ccc(-c2nc3c(c(N4CCOC[C@@H]4C)n2)CCN(C2COC2)C3)cc1,active: 0.332 µM,
CC(C)(O)CC(=O)NCCn1ccc2ncnc(Nc3ccc(Oc4cccc(C(F)(F)F)c4)c(Cl)c3)c21,active: 26.4 µM,
CN(C)c1ccc(Nc2nc(N)n(C(=O)c3c(F)cccc3F)n2)cc1,inconclusive: 26.4 µM [cytotoxic],
CCN(CCO)CCCOc1ccc2c(Nc3cc(CC(=O)Nc4cccc(F)c4)[nH]n3)ncnc2c1,inconclusive: 1.32 µM [cytotoxic],
O=C(Nc1cccc(Cl)c1)Nc1ncc(CCNc2ncnc3ccsc23)s1,inconclusive: 2.35 µM [cytotoxic],
Cc1cccc(-c2[nH]c(C(C)(C)C)nc2-c2ccc3c(c2)OCO3)n1,active: 6.62 µM,
CC[C@@]1(O)C[C@H](O[C@H]2C[C@H](N(C)C)[C@H](O[C@H]3C[C@H](O)[C@H](O[C@H]4CCC(=O)[C@H](C)O4)[C@H](C)O3)[C@H](C)O2)c2c(cc3c(c2O)C(=O)c2c(O)cccc2C3=O)[C@H]1C(=O)OC,active: 0.469 µM,
CC(=O)SCC(Cc1ccccc1)C(=O)NCC(=O)OCc1ccccc1 (stereo not given),active: 0.833 µM,
CCOc1ccc(Nc2nc(-c3c(C)nc4ccccn34)cs2)cc1,inconclusive: 0.00662 µM [cytotoxic],
COC(=O)Nc1nc2ccc(C(=O)c3ccccc3)cc2[nH]1,inconclusive: 0.743 µM [cytotoxic],
C=C1C(=O)OC2/C=C(/C)CC/C=C(/C)CCC12 (stereo not given),inconclusive: 16.6 µM [cytotoxic],
O=c1[nH]nc(Sc2ncc([N+](=O)[O-])s2)n1-c1ccc2c(c1)OCCO2,inconclusive: 2.35 µM [cytotoxic],
CC(C)(C)NCC(O)c1ccc(O)c(CO)c1 (stereo not given),,inactive
O=C(O)c1ccc2c(c1)nc(Nc1cccc(Cl)c1)c1ccncc12,active: 7.43 µM,

# In a second layout: results already given.
SMILES	AC50	outcome
CO[C@H]1C[C@@H]2CC[C@@H](C)[C@@](O)(O2)C(=O)C(=O)N2CCCC[C@H]2C(=O)O[C@H]([C@H](C)C[C@@H]2CC[C@@H](OC(=O)C(C)(CO)CO)[C@H](OC)C2)CC(=O)[C@H](C)/C=C(\C)[C@@H](O)[C@@H](OC)C(=O)[C@H](C)C[C@H](C)/C=C/C=C/C=C/1C	inconclusive: 33.2 µM [cytotoxic]	
CC[C@H](CC#N)OC(=O)N[C@@H](C)c1cccc(NC(=O)Nc2ccc(-c3cnco3)c(OC)c2)c1	active: 1.32 µM	

# Later entries:

SMILES,AC50,outcome
CS(=O)(=O)N1CCc2c(-c3cnc(N)nc3)nc(N3CCOCC3)nc21,active: 0.148 µM,
COc1cc2ncnc(Nc3cccc(Cl)c3)c2cc1OC,active: 18.7 µM,
CC1(C)CCC2=C(O1)c1ccccc1C(=O)C2=O,active: 20.9 µM,
CCCCc1ccc2nc(NC(=O)OC)[nH]c2c1,inconclusive: 0.00743 µM [cytotoxic],
CN1c2ccccc2C(=O)N2CCc3c([nH]c4ccccc34)C21 (stereo not given),,inactive
CN(C)c1nc(N(C)C)nc(N(C)C)n1,,inactive
O=C(NCCCNc1nc(Nc2cccc(NC(=O)N3CCCC3)c2)ncc1I)c1cccs1,active: 14.8 µM,
CCC(C)SSc1ncc[nH]1 (stereo not given),inconclusive: 10.5 µM [cytotoxic],
O=C1[C@H](Cc2ccc(O)cc2)N2C(=O)CCN(C(=O)NCc3ccccc3)[C@H]2CN1Cc1cccc2ccccc12,active: 3.72 µM,
CC(C)C[C@@H](N)[C@H](O)C(=O)N[C@H](C(=O)N[C@H](C(=O)N[C@@H](CC(=O)O)C(=O)O)C(C)C)C(C)C,,inactive
Cc1c[nH]c(/C=C2\C(=O)Nc3ccccc32)c1CCC(=O)O,inconclusive: 23.5 µM [cytotoxic],
Clc1ccc(COC(Cn2ccnc2)c2ccc(Cl)cc2Cl)c(Cl)c1 (stereo not given),inconclusive: 14.8 µM [cytotoxic],
CC1(C)O[C@@H]2C[C@H]3[C@@H]4CCC5=CC(=O)C=C[C@]5(C)[C@H]4[C@@H](O)C[C@]3(C)[C@]2(C(=O)CO)O1,,inactive
CCCCc1nc2cc(/C=C/C(=O)NO)ccc2n1CCN(CC)CC,active: 0.0148 µM,
COc1ccc(-c2oc3c(CC=C(C)C)c(O)cc(O)c3c(=O)c2O)cc1,,inactive
COc1cc(F)c(F)c(Nc2ccc(I)cc2F)c1NS(=O)(=O)C1(C[C@H](O)CO)CC1,inconclusive: 6.62 µM [cytotoxic],
CN1CCC(=C2c3ccccc3CC(=O)c3sccc32)CC1,inconclusive: 18.7 µM [cytotoxic],
OC(c1cc(C(F)(F)F)nc2c(C(F)(F)F)cccc12)C1CCCCN1 (stereo not given),active: 26.4 µM,
CN(C)C/C=C/C(=O)Nc1cc2c(Nc3ccc(F)c(Cl)c3)ncnc2cc1O[C@H]1CCOC1,active: 16.6 µM,
Cc1cc(C(=O)NOCCO)c(Nc2ccc(I)cc2F)n(C)c1=O,inconclusive: 0.209 µM [cytotoxic],

# An excerpt of these results, tab-delimited:
SMILES	AC50	outcome
CCCCc1nc2cc(/C=C/C(=O)NO)ccc2n1CCN(CC)CC	active: 0.0148 µM	
COc1ccc(-c2oc3c(CC=C(C)C)c(O)cc(O)c3c(=O)c2O)cc1		inactive
